Data as given in patent US8486043B2, “Inhalation drug delivery” (MAP Pharmaceuticals, Inc., priority 2007, dated 2013).
“And” between values parts separate entries of the source, which are not always exact repeats. Equal values may be shown once. For at least one compound, name, drawing or mass did not settle the structure.

Experiments:
[1] = Container effects on formulation stability: budesonide particle size on storage (static light scattering); type: physicochemical; conditions: for Dmean: horizontal, 25° C., 40% RH; for agglomeration of particles on storage: storage period of up to 12 months
[2] = Container effects on surface adsorption: re-suspension of particulate budesonide after shaking stored containers (HPLC); type: physicochemical

For `CCCC1O[C@@H]2C[C@H]3[C@@H]4CCC5=CC(=O)C=C[C@]5(C)[C@H]4[C@@H](O)C[C@]3(C)[C@]2(C(=O)CO)O1` (some centres unmarked) [Budesonide, budesonide], the Dmean ([1]; 0.135 mg/1.5 ml, storage 3 months) was 425 nm and 420 nm and 424 nm, the Dmean ([1]; 0.135 mg/1.5 ml, storage 6 Weeks) was 444 nm and 446 nm and the Dmean ([1]; 0.135 mg/1.5 ml, storage 6 months) was 450 nm and 453 nm and 455 nm. For the same compound, the Dmean ([1]; 0.135 mg/1.5 ml, storage 9 months) was 446 nm and 445 nm and 444 nm, the Dmean ([1]; 0.135 mg/1.5 ml, storage 12 months) was 525 nm and 520 nm and 521 nm and the Dmean ([1]; 0.135 mg/1.5 ml, storage 18 months) was 447 nm and 446 nm. The “agglomeration of particles on storage” value ([1]; 0.135 mg/1.5 ml) was “no substantial agglomeration”, the Dmean ([1]; 0.135 mg/1.5 ml, storage time 0) was 417 nm and 410 nm and 411 nm and the Dmean ([1]; 0.250 mg/1.5 ml, storage 3 months) was 442 nm and 432 nm and 436 nm. The Dmean ([1]; 0.250 mg/1.5 ml, storage 6 Weeks) was 439 nm and 444 nm, the Dmean ([1]; 0.250 mg/1.5 ml, storage 6 months) was 450 nm and 452 nm and 454 nm and the Dmean ([1]; 0.250 mg/1.5 ml, storage 9 months) was 451 nm and 454 nm. For the same compound, the Dmean ([1]; 0.250 mg/1.5 ml, storage 12 months) was 438 nm and 437 nm and 436 nm, the Dmean ([1]; 0.250 mg/1.5 ml, storage 18 months) was 1027 nm and 670 nm and 1051 nm and the “agglomeration of particles on storage” value ([1]; 0.250 mg/1.5 ml) was “no substantial agglomeration”. For the same compound, the Dmean ([1]; 0.250 mg/1.5 ml, storage time 0) was 410 nm and 406 nm, the “increase in particle size on storage” value ([1]; high concentration 0.250 mg/1.5 ml, stored for up to 12 months) was at most 150 nm and the “increase in particle size on storage” value ([1]; low concentration 0.135 mg/1.5 ml, stored for up to 18 months) was at most 150 nm. The “re-suspension/re-dispersion of particulate budesonide on shaking” value ([2]; severe and moderate shaking, all label claim doses and orientations, stored three weeks) was “sufficient to re-suspend/re-disperse” and the “particulate active agent lost to surface adsorption” value ([2]; stored three weeks horizontal, vertical up or vertical down, moderate or severe shaking 1-10 s, low, mid and high dose) was “not more than 10%”.
